Experimental data from PubChem BioAssay AID2561 (National Center for Advancing Translational Sciences (NCATS), 2010).
The shares of active, inactive and inconclusive entries below differ from those in the screen. Potencies of inconclusive entries are doubtful fits and often do not repeat. Calls of active or inactive are those of the source. Calls come from the whole dose curve; as a rule, active = well fitted inhibition curve with a large enough effect; inconclusive = small, poorly fitted or top-dose-only effect, or effect the other way; inactive = flat fitted curve, though single readings scatter.

Protein sequences, listed by entry. Tags and fused reporters are not part of them. Lines headed by an entry give the natural chain unless they say otherwise; changes in a name come on top.
UniProt Q27686: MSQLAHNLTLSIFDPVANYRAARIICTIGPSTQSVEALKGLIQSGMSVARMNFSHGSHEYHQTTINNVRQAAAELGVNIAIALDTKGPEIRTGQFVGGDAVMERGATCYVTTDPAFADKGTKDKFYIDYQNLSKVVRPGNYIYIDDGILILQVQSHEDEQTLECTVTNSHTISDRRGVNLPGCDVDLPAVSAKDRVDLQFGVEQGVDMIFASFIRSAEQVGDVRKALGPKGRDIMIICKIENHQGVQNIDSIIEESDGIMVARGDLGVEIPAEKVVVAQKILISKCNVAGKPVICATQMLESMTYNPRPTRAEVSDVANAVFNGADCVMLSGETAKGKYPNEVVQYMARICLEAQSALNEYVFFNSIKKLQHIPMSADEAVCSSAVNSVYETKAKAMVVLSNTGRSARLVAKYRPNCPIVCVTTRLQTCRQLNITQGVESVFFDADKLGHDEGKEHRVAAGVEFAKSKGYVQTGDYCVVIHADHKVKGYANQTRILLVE

What follows are compounds tested against Pyruvate kinase (Leishmania mexicana) (UniProt Q27686) (assay: Confirmation Assay for Inhibitors of Leishmania Mexicana Pyruvate Kinase (LmPK): for Probe SAR). Details: purified LmPK, ATP generation, Kinase-Glo luminescence; series mostly up to 57.5 µM.
Source text: NIH Chemical Genomics Center [NCGC] Malcolm Walkinshaw, Hugh Morgan, Linda Gilmore University of Edinburgh, UK MLPCN Grant: 1 R03 MH085697-01 NCGC Assay Overview: Pyruvate kinase (L. Mexicana) (LmPK) enzyme was supplied as a highly purified (>95% pure) sulphate-free preparation from University of Edinburgh, UK and assayed for its ability to generate ATP from ADP using phosphoenolpyruvate (PEP) as a substrate. ATP generation was detected in a coupled reaction by luciferase-mediated luminescence, an ATP-dependent process. Pyruvate kinase substrates, PEP and ADP, were present in the assay at Km and approximately 10-fold below Km respectively. The enzyme was assayed at an intermediate level of activity to screen for both inhibitors and activators.
NCGC Assay Protocol Summary: Three uL of enzyme mix (kept on ice) in assay buffer (50 mM Imidazole pH7.2, 50 mM KCl, 7 mM MgCl2, 0.01% Tween 20, 0.05% BSA) containing PEP (0.5 mM final concentration) and LmPK (0.1 nM final concentration) was dispensed into white solid bottom 1,536 well microtiter plates. 23 nL of compound were delivered by a pin tool and 1 uL of ADP mix in assay buffer (r.t; 0.1 mM final ADP concentration) was added. Plates were incubated at room temperature for 1 hour. Two uL of detection mix (Kinase-Glo, Promega; at 4 degree Celsius protected from light) was added and luminescence read by a ViewLux (Perkin Elmer) at 1 second exposure/plate. Data were normalized to the uninhibited and AC100 inhibition (no enzyme). To monitor activation, the first column contained a five-fold concentration of LmPK (0.5 nM).
Potency is the fitted concentration of half-maximal effect.

SMILES | Potency
O=C1CCc2cc(S(=O)(=O)Nc3cccnc3)ccc2N1 | inconclusive: 58 nM [activator, full curve]
O=S1(=O)N=C(Oc2cccc(Cl)c2)c2ccccc21 | inconclusive: 193000 nM [activator, partial curve, poor fit]
O=S1(=O)N=C(Oc2ccc(Br)cc2)c2ccccc21 | active: 2910 nM
COc1ccc(Nc2c(-c3ccc(C)o3)nc3ccccn23)cc1 | inactive
Cc1ccn2c(NC3CCCCC3)c(-c3ccc(C)o3)nc2c1 | inactive
O=C1c2ccccc2C(=O)N1c1cccc2ccncc12 | inconclusive: 73 nM [activator, full curve]
O=C1NS(=O)(=O)c2cc3c(cc21)C(=O)NS3(=O)=O | inactive
Cc1ccn2c(NCc3ccco3)c(-c3ccccc3)nc2c1 | inactive
Cc1ccc(-c2nc3cnccn3c2Nc2ccc(C(C)C)cc2)o1 | inconclusive: 4210 nM [activator, full curve, poor fit]
COc1ccc(N2C(=O)c3ccccc3S2(=O)=O)cc1 | inactive
Cc1cc(C2C(=O)c3ccccc3C2=O)nc2ccccc12 | inconclusive: 18300 nM [falling, partial curve]
Cc1ccc(NS(=O)(=O)c2cc3c(cc2N2CCCCC2)NC(=O)CC3)cc1C | inactive
Cc1ccc(Nc2c(-c3ccc(C)o3)nc3cccc(C)n23)cc1 | inactive
O=C1CCc2cc(S(=O)(=O)Nc3ccccc3Cl)ccc2N1 | inconclusive: 11.6 nM [activator, full curve, poor fit]
Nc1ccccc1OC1=NS(=O)(=O)c2ccccc21 | inactive
O=S1(=O)N=C(Oc2ccccc2Cl)c2ccccc21 | inconclusive: 54300 nM [activator, partial curve]
O=C1c2ccccc2C(=O)N1c1cncc2ccccc12 | inconclusive: 36.6 nM [activator, full curve]

Single entries from the entries so far:
Potency with O=C1CCc2cc(S(=O)(=O)Nc3cccnc3)ccc2N1 is entered as inconclusive: 58 nM [activator, full curve]
Potency with Nc1ccccc1OC1=NS(=O)(=O)c2ccccc21 is entered as inactive

Following part:

SMILES | Potency
O=C1c2ccccc2C(=O)N1c1ccc2ccccc2n1 | inconclusive: 410 nM [activator, full curve, poor fit]
Cc1ccc(NS(=O)(=O)c2cc3c(cc2Cl)NC(=O)CO3)cc1C | inactive
Cc1ccc(NS(=O)(=O)c2ccc3ccccc3c2)cc1C | inconclusive: 183 nM [activator, full curve, poor fit]
Cc1ccc(NC(=O)c2ccc3c(c2)CCC(=O)N3)cc1C | inconclusive: 146 nM [activator, full curve, poor fit]
O=S1(=O)N=C(Sc2cccc3cccnc23)c2ccccc21 | active: 2910 nM
COc1ccc(-c2nc3cccc(C)n3c2Nc2ccc(C)cc2)cc1 | inactive
O=C1NS(=O)(=O)c2cc(Br)ccc21 | inactive
O=C(O)c1ccccc1OC1=NS(=O)(=O)c2ccccc21 | active: 1630 nM
O=C1CCc2cc(S(=O)(=O)Nc3cccc4ccccc34)ccc2N1 | inconclusive: 36600 nM [activator, partial curve, poor fit]
Cc1ccc(C)c(SC2CS(=O)(=O)c3ccccc32)c1 (centres undefined) | inconclusive: 326 nM [activator, full curve, poor fit]
N#Cc1cccc(OC2=NS(=O)(=O)c3ccccc32)c1 | active: 4610 nM
Cc1ccc(NS(=O)(=O)c2cccc(F)c2)cc1C | inactive
Cc1ccc(C)c(SC2=CS(=O)(=O)c3ccccc32)c1 | inconclusive: 146 nM [activator, full curve, poor fit]
Cc1ccc(OC2=NS(=O)(=O)c3ccccc32)cc1 | active: 12500 nM
O=S1(=O)N=C(Oc2ccccc2)c2ccccc21 | active: 8010 nM
O=S1(=O)N=C(Sc2cc(C(F)(F)F)cc(C(F)(F)F)c2)c2ccccc21 | active: 2910 nM
O=C(O)c1cccnc1SC1=NS(=O)(=O)c2ccccc21 | inconclusive: 16300 nM [falling, partial curve]
